Consider 39 targets from the supplement of paper PMC12067093, “Discovery and optimisation of a covalent ligand for TRIM25 and its application to targeted protein ubiquitination” (Chemical Science, 2025).

By UniProt entry, the sequences of proteins in these tests, tags left out. Where a name states a change or a piece, a line headed by the entry shows the natural chain unless it says otherwise.
UniProt O96011: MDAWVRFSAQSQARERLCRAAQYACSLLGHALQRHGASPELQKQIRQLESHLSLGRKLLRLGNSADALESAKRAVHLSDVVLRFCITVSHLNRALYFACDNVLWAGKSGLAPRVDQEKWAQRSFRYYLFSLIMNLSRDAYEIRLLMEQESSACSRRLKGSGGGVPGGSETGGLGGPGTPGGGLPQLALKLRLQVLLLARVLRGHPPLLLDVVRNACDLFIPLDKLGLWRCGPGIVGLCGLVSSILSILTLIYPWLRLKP
UniProt O43175: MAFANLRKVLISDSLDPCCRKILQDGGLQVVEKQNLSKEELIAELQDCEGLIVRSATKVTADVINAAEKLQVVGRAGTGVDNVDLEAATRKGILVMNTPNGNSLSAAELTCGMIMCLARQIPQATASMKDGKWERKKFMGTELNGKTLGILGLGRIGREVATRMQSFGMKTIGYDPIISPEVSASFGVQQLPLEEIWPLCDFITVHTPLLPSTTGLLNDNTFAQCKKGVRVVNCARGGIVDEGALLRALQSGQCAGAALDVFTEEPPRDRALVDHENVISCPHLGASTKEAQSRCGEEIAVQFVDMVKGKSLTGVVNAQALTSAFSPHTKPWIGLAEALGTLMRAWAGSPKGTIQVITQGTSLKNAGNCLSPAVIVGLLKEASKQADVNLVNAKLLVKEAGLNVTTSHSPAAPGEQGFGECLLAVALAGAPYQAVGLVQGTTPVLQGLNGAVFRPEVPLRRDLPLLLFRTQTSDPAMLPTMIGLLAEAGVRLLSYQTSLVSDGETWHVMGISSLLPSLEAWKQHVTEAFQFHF
UniProt Q7RTV0, whole entry, looked up: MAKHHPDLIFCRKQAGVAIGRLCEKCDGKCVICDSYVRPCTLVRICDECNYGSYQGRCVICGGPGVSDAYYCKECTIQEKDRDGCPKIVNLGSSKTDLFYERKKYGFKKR
UniProt P15735: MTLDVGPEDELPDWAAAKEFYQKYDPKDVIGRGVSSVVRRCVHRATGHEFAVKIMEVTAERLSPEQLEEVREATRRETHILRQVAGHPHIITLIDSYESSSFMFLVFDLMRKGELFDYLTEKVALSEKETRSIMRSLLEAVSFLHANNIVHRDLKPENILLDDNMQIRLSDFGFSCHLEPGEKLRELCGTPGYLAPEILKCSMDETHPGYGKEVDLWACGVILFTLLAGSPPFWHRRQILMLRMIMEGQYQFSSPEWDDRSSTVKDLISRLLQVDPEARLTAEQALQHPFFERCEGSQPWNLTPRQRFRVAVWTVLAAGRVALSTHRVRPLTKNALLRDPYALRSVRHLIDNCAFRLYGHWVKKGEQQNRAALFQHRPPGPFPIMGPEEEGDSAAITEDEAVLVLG
UniProt O94880: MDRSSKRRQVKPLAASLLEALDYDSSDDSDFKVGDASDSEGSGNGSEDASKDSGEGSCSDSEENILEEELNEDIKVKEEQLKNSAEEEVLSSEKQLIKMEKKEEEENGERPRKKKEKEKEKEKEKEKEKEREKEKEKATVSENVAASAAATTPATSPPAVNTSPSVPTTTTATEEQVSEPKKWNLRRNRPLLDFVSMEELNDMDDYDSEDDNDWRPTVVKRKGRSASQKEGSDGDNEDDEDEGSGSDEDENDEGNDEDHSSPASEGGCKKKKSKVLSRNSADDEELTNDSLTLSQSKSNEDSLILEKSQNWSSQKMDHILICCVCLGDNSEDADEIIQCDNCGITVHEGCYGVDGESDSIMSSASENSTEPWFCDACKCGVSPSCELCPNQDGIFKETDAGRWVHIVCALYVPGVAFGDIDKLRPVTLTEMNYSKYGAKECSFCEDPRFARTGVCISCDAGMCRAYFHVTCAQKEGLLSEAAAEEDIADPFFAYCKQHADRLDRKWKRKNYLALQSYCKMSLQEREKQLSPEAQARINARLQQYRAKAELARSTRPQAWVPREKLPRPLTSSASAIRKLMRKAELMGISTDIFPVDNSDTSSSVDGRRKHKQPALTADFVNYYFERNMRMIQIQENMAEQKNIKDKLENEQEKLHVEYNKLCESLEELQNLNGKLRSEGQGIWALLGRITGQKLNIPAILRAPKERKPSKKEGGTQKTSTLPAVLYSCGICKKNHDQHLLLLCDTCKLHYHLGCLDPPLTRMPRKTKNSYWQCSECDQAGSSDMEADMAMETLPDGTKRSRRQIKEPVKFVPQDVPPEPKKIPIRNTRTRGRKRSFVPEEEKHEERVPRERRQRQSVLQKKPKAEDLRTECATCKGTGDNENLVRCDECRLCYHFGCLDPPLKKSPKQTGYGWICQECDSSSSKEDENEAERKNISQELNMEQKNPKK
UniProt P00558: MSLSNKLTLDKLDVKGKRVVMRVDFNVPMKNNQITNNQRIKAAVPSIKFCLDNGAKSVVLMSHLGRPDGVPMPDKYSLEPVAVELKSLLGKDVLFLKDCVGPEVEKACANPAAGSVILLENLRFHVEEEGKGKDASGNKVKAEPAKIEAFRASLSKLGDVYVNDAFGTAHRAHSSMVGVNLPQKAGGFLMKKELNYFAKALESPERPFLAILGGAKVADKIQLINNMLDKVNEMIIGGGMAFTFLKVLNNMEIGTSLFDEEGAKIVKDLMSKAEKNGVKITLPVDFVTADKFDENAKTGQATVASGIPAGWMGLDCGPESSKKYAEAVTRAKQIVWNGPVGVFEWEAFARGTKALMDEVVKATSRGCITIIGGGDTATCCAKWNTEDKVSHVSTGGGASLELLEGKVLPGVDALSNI
UniProt Q9BRX2, whole entry, looked up: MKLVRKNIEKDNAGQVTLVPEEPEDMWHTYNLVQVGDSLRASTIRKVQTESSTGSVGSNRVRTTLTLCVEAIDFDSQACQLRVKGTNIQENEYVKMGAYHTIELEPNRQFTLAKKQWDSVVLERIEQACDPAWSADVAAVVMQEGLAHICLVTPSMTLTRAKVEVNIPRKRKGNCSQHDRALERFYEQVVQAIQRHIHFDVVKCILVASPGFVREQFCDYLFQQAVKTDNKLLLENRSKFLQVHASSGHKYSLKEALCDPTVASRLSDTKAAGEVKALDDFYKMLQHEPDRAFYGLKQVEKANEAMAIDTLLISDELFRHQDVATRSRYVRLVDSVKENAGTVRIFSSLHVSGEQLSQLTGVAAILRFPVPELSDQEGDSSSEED
UniProt P12955: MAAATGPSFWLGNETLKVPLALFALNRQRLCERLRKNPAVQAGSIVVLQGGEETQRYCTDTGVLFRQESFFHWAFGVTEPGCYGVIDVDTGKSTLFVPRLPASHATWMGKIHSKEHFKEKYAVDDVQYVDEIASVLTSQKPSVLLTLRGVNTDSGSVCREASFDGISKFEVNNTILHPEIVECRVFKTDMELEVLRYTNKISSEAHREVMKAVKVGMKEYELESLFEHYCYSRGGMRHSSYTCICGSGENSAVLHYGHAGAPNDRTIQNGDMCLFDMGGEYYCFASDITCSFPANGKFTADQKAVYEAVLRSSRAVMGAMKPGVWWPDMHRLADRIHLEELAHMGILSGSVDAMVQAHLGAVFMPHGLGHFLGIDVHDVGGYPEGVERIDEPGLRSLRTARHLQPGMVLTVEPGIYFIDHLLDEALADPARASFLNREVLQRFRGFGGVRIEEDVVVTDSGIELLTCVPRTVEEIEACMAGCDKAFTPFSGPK
UniProt P52209: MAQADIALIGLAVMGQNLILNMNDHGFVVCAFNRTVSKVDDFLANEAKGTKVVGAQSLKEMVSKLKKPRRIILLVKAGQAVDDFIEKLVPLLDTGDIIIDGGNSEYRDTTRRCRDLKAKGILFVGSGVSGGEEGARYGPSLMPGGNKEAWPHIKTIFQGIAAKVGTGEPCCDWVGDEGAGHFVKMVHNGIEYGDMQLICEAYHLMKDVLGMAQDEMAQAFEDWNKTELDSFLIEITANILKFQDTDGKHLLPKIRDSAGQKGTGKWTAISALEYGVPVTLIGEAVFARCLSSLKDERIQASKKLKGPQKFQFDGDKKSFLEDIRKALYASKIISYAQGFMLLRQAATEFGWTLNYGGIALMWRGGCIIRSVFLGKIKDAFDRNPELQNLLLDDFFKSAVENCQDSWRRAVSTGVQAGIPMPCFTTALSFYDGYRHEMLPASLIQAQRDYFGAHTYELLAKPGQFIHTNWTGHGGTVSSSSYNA
UniProt O15067: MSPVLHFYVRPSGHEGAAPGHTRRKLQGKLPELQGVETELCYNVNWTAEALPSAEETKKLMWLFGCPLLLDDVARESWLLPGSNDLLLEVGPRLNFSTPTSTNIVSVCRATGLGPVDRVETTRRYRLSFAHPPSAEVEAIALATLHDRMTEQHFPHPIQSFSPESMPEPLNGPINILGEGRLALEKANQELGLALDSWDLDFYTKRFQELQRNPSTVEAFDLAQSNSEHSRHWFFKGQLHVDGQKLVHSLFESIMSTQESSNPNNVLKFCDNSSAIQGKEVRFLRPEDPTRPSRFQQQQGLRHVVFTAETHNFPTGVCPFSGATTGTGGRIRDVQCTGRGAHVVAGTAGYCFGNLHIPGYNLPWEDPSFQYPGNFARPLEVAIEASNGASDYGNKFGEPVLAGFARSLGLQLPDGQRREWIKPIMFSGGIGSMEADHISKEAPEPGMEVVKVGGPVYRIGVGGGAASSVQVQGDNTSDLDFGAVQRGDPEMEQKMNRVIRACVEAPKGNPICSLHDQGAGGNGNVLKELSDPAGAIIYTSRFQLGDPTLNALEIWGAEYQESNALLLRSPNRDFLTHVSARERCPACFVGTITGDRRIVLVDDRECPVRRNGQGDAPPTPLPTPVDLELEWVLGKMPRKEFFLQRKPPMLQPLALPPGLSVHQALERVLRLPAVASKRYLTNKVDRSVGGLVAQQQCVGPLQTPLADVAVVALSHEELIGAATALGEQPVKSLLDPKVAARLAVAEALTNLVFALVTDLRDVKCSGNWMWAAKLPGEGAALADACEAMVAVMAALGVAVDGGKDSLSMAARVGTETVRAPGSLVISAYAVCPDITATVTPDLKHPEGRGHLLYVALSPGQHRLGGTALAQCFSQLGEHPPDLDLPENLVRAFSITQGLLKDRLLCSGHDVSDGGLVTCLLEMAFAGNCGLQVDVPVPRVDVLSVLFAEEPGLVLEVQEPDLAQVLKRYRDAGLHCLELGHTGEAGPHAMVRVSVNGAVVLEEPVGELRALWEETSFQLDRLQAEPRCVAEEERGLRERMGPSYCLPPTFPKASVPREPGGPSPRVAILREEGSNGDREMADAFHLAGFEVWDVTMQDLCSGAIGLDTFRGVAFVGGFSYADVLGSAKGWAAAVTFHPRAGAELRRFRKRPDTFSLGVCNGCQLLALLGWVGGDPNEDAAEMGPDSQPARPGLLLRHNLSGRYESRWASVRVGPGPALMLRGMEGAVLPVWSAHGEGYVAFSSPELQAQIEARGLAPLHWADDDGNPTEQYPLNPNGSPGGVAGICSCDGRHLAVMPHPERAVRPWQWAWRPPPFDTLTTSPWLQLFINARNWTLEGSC
UniProt Q8IWS0: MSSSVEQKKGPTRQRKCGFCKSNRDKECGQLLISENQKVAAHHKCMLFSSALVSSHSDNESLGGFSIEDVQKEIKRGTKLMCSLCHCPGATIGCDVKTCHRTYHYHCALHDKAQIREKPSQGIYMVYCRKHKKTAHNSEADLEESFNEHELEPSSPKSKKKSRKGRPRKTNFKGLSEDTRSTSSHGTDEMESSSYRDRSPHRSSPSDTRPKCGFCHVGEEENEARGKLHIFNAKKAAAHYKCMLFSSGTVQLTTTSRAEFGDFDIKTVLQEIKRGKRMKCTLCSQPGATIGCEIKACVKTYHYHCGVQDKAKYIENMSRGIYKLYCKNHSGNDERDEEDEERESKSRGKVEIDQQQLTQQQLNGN
UniProt P17858: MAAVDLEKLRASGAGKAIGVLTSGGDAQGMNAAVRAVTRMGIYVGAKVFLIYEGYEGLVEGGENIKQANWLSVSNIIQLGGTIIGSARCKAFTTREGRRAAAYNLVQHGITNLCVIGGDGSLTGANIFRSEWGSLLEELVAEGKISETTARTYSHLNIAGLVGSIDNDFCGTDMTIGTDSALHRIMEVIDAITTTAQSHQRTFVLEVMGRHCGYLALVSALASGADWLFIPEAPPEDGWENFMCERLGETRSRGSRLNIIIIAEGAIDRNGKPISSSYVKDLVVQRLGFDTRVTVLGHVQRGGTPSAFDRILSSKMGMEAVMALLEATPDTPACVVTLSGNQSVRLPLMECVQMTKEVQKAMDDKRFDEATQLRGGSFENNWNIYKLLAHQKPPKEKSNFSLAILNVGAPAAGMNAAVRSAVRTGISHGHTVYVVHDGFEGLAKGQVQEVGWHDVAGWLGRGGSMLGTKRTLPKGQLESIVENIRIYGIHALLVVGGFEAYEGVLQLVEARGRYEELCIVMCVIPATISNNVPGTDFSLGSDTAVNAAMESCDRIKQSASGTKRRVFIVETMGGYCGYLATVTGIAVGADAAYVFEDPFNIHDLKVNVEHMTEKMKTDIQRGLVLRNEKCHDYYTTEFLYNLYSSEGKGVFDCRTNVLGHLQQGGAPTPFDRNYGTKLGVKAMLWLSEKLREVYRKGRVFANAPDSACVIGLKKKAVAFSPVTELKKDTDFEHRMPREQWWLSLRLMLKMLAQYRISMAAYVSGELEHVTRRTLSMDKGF

Compound in this assay: CC1Cc2ccccc2N1C(=O)C1CCCN(C1)C(=O)CCl (mixture of isomers) [TRIM25 ligand 11 (diastereomer mixture)]
Kind of assay: probe-labelled cysteine peptide fold change vs DMSO (competition) (log2 fold change); higher = less target engagement (more negative = stronger competition). The following applies: THP-1, incubation time: 4 h.

This is one part of the list.
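Also: competitive chemoproteomic profiling in live THP-1 cells with an iodoacetamide desthiobiotin (IA-DTB) probe, comparing probe-labelled peptide intensities in compound-treated cells against DMSO-treated controls.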

As for “PEX11B_O96011_153_LLMEQESSACSR (UniProt O96011)”, the “probe-labelled cysteine peptide fold change” value is, setting by setting: (10 µM) 0.0598; (50 µM) -0.186.

On to “PFKFB3_Q16875_427_LTPVAYGCR (UniProt Q16875)”, for which the “probe-labelled cysteine peptide fold change” value (10 µM) came out at 0.0292 and the “probe-labelled cysteine peptide fold change” value (50 µM) was 0.22.

Take “PHGDH_O43175_369_NAGNCLSPAVIVGLLK (UniProt O43175)”: the “probe-labelled cysteine peptide fold change” value is -0.153 (10 µM) and -0.228 (50 µM).

For “PHF8_Q9UPP1_86_AADIDLYHCPNCEVLHGPSIMK (UniProt Q9UPP1)”, the “probe-labelled cysteine peptide fold change” value is -0.0305 (10 µM) and -0.0733 (50 µM).

Consider “PHF5A_Q7RTV0_33_CVICDSYVRPCTLVR (UniProt Q7RTV0)”, for which the “probe-labelled cysteine peptide fold change” value is -0.0145 (10 µM) and -0.0268 (50 µM).

With “PEX11B_O96011_18+25_LCRAAQYACSLLGHALQRHGASPELQK (UniProt O96011)”, the “probe-labelled cysteine peptide fold change” value was -0.0919 (10 µM) and -0.101 (50 µM).

Consider “PIAS2_O75928_346_VSLMCPLGK (UniProt O75928)”, for which the “probe-labelled cysteine peptide fold change” value by setting is: (10 µM) -0.148; (50 µM) 0.0304.

As for “PHIP_Q8WWQ0_1382_ETLEAGNYESPMELCK (UniProt Q8WWQ0)”, the “probe-labelled cysteine peptide fold change” value was 0.0362 (10 µM) and -0.236 (50 µM).

As for “PHKG2_P15735_353_HLIDNCAFR (UniProt P15735)”, the “probe-labelled cysteine peptide fold change” value is -0.0131 (10 µM) and -0.00983 (50 µM).

For “PHF14_O94880_518_NYLALQSYCK (UniProt O94880)”, the “probe-labelled cysteine peptide fold change” value (10 µM) was -0.0591 and the “probe-labelled cysteine peptide fold change” value (50 µM) is -0.228.

As to “PGK1_P00558_379_GCITIIGGGDTATCCAK (UniProt P00558)”, the “probe-labelled cysteine peptide fold change” value by setting is: (10 µM) 0.0952; (50 µM) 0.168.

In the case of “PHF14_O94880-2_607_LCYHFGCLDPPLK (UniProt O94880)”, the “probe-labelled cysteine peptide fold change” value is -0.0279 (10 µM) and -0.0177 (50 µM).

“PELO_Q9BRX2_175_KGNCSQHDR (UniProt Q9BRX2)”: the “probe-labelled cysteine peptide fold change” value is 0.179 (10 µM) and -0.108 (50 µM).

As to “PGM3_O95394_168_LSQSVIDGVTVLGGQFHDYGLLTTPQLHYMVYCR (UniProt O95394)”, the “probe-labelled cysteine peptide fold change” value reads like this: (10 µM) -0.00373; (50 µM) -0.079.

Turning to “PELP1_Q8IZL8_522_KGDSNANSDVCAAALR (UniProt Q8IZL8)”, the “probe-labelled cysteine peptide fold change” value is -0.159 (10 µM) and -0.0633 (50 µM).

For “PEPD_P12955_58_YCTDTGVLFR (UniProt P12955)”, the “probe-labelled cysteine peptide fold change” value is, setting by setting: (10 µM) -0.000997; (50 µM) 0.108.

With PGD_P52209_289_CLSSLK (UniProt P52209), the “probe-labelled cysteine peptide fold change” value came to 0.144 (10 µM) and 0.112 (50 µM).

“PGK1_P00558_316_TGQATVASGIPAGWMGLDCGPESSKK (UniProt P00558)”: the “probe-labelled cysteine peptide fold change” value (10 µM) was -0.0449 and the “probe-labelled cysteine peptide fold change” value (50 µM) was -0.138.

With “PDZD8_Q8NEN9_667_DVTSETSCPTK (UniProt Q8NEN9)”, the “probe-labelled cysteine peptide fold change” value runs as follows: (10 µM) -0.316; (50 µM) -0.444.

As to “PECR_Q9BY49_191_SLALEWACSGIR (UniProt Q9BY49)”, the “probe-labelled cysteine peptide fold change” value reads like this: (10 µM) 0.103; (50 µM) -0.0459.

In the case of “PFAS_O15067_831_APGSLVISAYAVCPDITATVTPDLK (UniProt O15067)”, the “probe-labelled cysteine peptide fold change” value is -0.0525 (10 µM) and -0.267 (50 µM).

Turning to “PHPT1_Q9NRX4_71+73_QGCDCECLGGGR (UniProt Q9NRX4)”, the “probe-labelled cysteine peptide fold change” value (10 µM) stood at 0.197 and the “probe-labelled cysteine peptide fold change” value (50 µM) is -0.0507.

For the target “PGM3_O95394_249_LNHLCGADFVK (UniProt O95394)”, the “probe-labelled cysteine peptide fold change” value was -0.0509 (10 µM) and 0.106 (50 µM).

As for “PHF5A_Q7RTV0_75_ECTIQEK (UniProt Q7RTV0)”, the “probe-labelled cysteine peptide fold change” value is -0.112 (10 µM) and -0.084 (50 µM).

On to “PHF6_Q8IWS0_212_CGFCHVGEEENEAR (UniProt Q8IWS0)”, for which the “probe-labelled cysteine peptide fold change” value (10 µM) turned out to be 0.072 and the “probe-labelled cysteine peptide fold change” value (50 µM) is 0.162.

On to “PFAS_O15067_871_LGGTALAQCFSQLGEHPPDLDLPENLVR (UniProt O15067)”, for which the “probe-labelled cysteine peptide fold change” value is 0.0579 (10 µM) and -0.152 (50 µM).

Consider “PI4KA_P42356_459_DEQGAENLCIK (UniProt P42356)”, for which the “probe-labelled cysteine peptide fold change” value was 0.184 (10 µM) and -0.104 (50 µM).

Turning to “PGD_P52209_170_VGTGEPCCDWVGDEGAGHFVK (UniProt P52209)”, the “probe-labelled cysteine peptide fold change” value (10 µM) was determined as 0.0296 and the “probe-labelled cysteine peptide fold change” value (50 µM) was -0.0703.

Turning to “PHF6_Q8IWS0_107_TYHYHCALHDK (UniProt Q8IWS0)”, the “probe-labelled cysteine peptide fold change” value is -0.0754 (10 µM) and -0.167 (50 µM).

Consider “PFKL_P17858_630_CHDYYTTEFLYNLYSSEGK (UniProt P17858)”, for which the “probe-labelled cysteine peptide fold change” value is, setting by setting: (10 µM) 0.000602; (50 µM) -0.0394.

For “PIK3C2A_O00443_13_ECPSSHPEPTR (UniProt O00443)”, the “probe-labelled cysteine peptide fold change” value runs as follows: (10 µM) 0.0858; (50 µM) -0.104.

With “PHIP_Q8WWQ0_245_GHAAEISDMAVNYENTMIAAGSCDK (UniProt Q8WWQ0)”, the “probe-labelled cysteine peptide fold change” value is, setting by setting: (10 µM) 0.0498; (50 µM) 0.127.

For the target “PFKP_Q01813_411_TNCNVAVINVGAPAAGMNAAVR (UniProt Q01813)”, the “probe-labelled cysteine peptide fold change” value is -0.0311 (10 µM) and 0.0468 (50 µM).

Regarding “PHF5A_Q7RTV0_46_ICDECNYGSYQGR (UniProt Q7RTV0)”, the “probe-labelled cysteine peptide fold change” value by setting is: (10 µM) 0.00533; (50 µM) -0.0473.

Regarding “PI4K2A_Q9BTU6_124_CIFPER (UniProt Q9BTU6)”, the “probe-labelled cysteine peptide fold change” value by setting is: (10 µM) 0.133; (50 µM) 0.285.

Consider “PEPD_P12955_230_EYELESLFEHYCYSR (UniProt P12955)”, for which the “probe-labelled cysteine peptide fold change” value runs as follows: (10 µM) 0.103; (50 µM) 0.0141.

Consider “PI4KA_P42356_1215_DCDPQLLHHLCWGPLR (UniProt P42356)”, for which the “probe-labelled cysteine peptide fold change” value was found to be 0.121 (10 µM) and 0.294 (50 µM).

For the target “PHGDH_O43175_19_VLISDSLDPCCR (UniProt O43175)”, the “probe-labelled cysteine peptide fold change” value reads like this: (10 µM) 0.0299; (50 µM) 0.00413.

For “PFN1_P07737_17_AGWNAYIDNLMADGTCQDAAIVGYK (UniProt P07737)”, the “probe-labelled cysteine peptide fold change” value (10 µM) was -0.0393 and the “probe-labelled cysteine peptide fold change” value (50 µM) was -0.163.
